Measurements reported in PMC5028754.
These are yes or no findings as the source states them, for the method shown. Tags and fused reporters may be left off the sequences shown.

T1: Ddi1 UBL with an N-terminal His-tag (residues 1-80) (S. cerevisiae) (UniProt P40087)
T1 sequence (chain, 15N-labelled): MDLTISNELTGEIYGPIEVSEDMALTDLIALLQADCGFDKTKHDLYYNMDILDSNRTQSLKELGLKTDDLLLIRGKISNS


Biological target: T1, Ddi1 UBL with an N-terminal His-tag (residues 1-80) (S. cerevisiae)
Assay: NMR titration; 0.2 mM 15N-labeled Ddi1 UBL, 2D 15N/1H HSQC, two-fold molar excess (0.4 mM) of ligand added; 50 mM sodium phosphate, pH 7.4, 0.5% glycerol, 25 °C; minimal shift approach; both purified

Binder	binding
NVDEDLQLAIALSLSEIN (peptide, UniProt Q04511 651-668) [Ufo1 UIM4 (651-668)]	no binding (tested: 0.4 mM (two-fold molar excess))
GDTDEENDIQLRIALLESQEAQARNQAE (peptide, UniProt Q04511 512-539) [Yeast Ufo1 UIM1 (512-539)]	no binding (tested: 0.4 mM (two-fold molar excess))
RTFPEQTIKQLMDLGFPRDAVVKALKQTNGNAEFAASLLFQ (domain or fragment, UniProt P40087 388-428) [Ddi1 388-428 (UBA)]	no binding (tested: 0.4 mM (two-fold molar excess))
TNDEIDEDDEEFLRAIRQSRVEDERRRHLRNH (peptide, UniProt Q04511 577-608) [Yeast Ufo1 UIM3 (577-608)]	no binding
EPVGDDEDEQLRRALEESQLIYETQTNS (peptide, UniProt Q04511 542-569) [Yeast Ufo1 UIM2 (542-569)]	no binding (tested: 0.4 mM (two-fold molar excess))
Ddi1 86-325 (helical domains + protease) (domain or fragment, UniProt P40087 86-325) ATLSDEAFIEQFRQELLNNQMLRSQLILQIPGLNDLVNDPLLFRERLGPLILQRRYGGYNTAMNPFGIPQDEYTRLMANPDDPDNKKRIAELLDQQAIDEQLRNAIEYTPEMFTQVPMLYINIEINNYPVKAFVDTGAQTTIMSTRLAKKTGLSRMIDKRFIGEARGVGTGKIIGRIHQAQVKIETQYIPCSFTVLDTDIDVLIGLDMLKRHLACVDLKENVLRIAEVETSFLSEAEIPK	no binding (tested: 0.4 mM (two-fold molar excess))
Yeast Ufo1 UIM1-4 (residues 512-668) (domain or fragment, UniProt Q04511 512-668) GDTDEENDIQLRIALLESQEAQARNQAEAGEPVGDDEDEQLRRALEESQLIYETQTNSSANHGNNTNDEIDEDDEEFLRAIRQSRVEDERRRHLRNHTTGRRNGPLSDDNFATYGAAESSERTSTENTIGSSVGVDASNNVDEDLQLAIALSLSEIN	no binding (tested: 0.4 mM (two-fold molar excess))
